# Experimental data: PubChem BioAssay AID200 (DTP/NCI, 2004)
# The list is a part of this screen's results and no random one: it is rich in T/C values a quarter to a half above the control, in often repeated tests (any T/C) and in doses without a T/C. Other doses and runs of a compound stand elsewhere. T/C: endpoint of the treated group in % of that of the vehicle group. Some entries give survivors of the animals treated and no T/C: the source holds a T/C of zero for them, seemingly a mark for toxic or unscored doses. Some doses without a T/C left all or most animals alive at the check, yet need not have been tolerated: survival well below the control is almost never listed, so the zero probably covers shortened survival too. Counts of survivors are from the toxicity check (mostly the fifth day) where no day follows; animals may have died later. Schedule codes are those of the source, taken here to give the interval after Q, in days (D) or hours (H), and the number of doses after X. Some doses were run more than once; the results are listed from low to high. For survival time, the PubChem record calls one and a half times the control and up active, and a quarter to a half above the control has no call in these data; cut-offs in other NCI protocols can differ. Some T/C values carry the count of animals alive at the toxicity check (mostly the fifth day); where none is given, no animal had died by that day. *1 amine or outer side, *2 acyl side, *3 side chain or, on linkers, in order; H or OH if unused. Where a SMILES comes first, the peptide text is derived from it. Bridges are numbered along the chain shown (N, C = ends). Roman numbers before positions name the chains, in order. [ ]: non-standard residue; d: D form. Actinocin(1to9) = Cc1c2oc3c(C)ccc(C(=O)[*:2])c3nc-2c(C(=O)[*:1])c(N)c1=O; X1 = COC(=O)CCN(CC(=O)[*:2])[*:1]; NMeA = CN[CH](C)C(=O)O
# Test system: B6C3F1 mice, B16 melanoma ip, median survival T/C
# Test: NCI In Vivo Anticancer Drug Screen. Data for tumor model B16 Melanoma (intraperitoneal) in B6C3F1 mice
# Settings: T/C endpoint: median survival time, higher T/C = longer survival
# How it was run: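 Tumor-bearing mice received test compound; a separate group got vehicle only. Survival was then compared, with results reported as treated over control.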
# [1] = dose: 25.0 mg/kg/injection, schedule: Q01DX009 (ip), vehicle: saline with Tween-80
# [2] = dose: 50.0 mg/kg/injection, schedule: Q01DX009 (ip), vehicle: saline with Tween-80
# [3] = dose: 100.0 mg/kg/injection, schedule: Q01DX009 (ip), vehicle: saline with Tween-80
# [4] = dose: 400.0 mg/kg/injection, schedule: Q01DX009 (ip), vehicle: saline with Tween-80
# [5] = dose: 200.0 mg/kg/injection, schedule: Q01DX009 (ip), vehicle: saline
# [6] = dose: 400.0 mg/kg/injection, schedule: Q01DX009 (ip), vehicle: saline
# [7] = dose: 400.0 mg/kg/injection, schedule: Q01DX009 (ip), vehicle: suspension in saline
# [8] = dose: 200.0 mg/kg/injection, schedule: Q01DX009 (ip), vehicle: saline with Tween-80
# [9] = dose: 100.0 mg/kg/injection, schedule: Q01DX009 (ip), vehicle: saline
# [10] = dose: 100.0 mg/kg/injection, schedule: Q01DX009 (ip), vehicle: Klucel (hydroxypropylcellulose) (HPC)
compound,measurement,setting,value
COC1=CC(=O)C(OC)=C(OC)C1=O,survivor count,[1],4 of 10
same,survivor count,[2],4 of 10
same,survivor count,[3],1 of 10
COc1ccc(/C=C/C(=O)c2cc(C(=O)O)c(OC)cc2OC)cc1OC,survivor count,[4],5 of 10
Nc1nc2ncc(CNc3ccc(C(=O)NC(CCC(=O)O)C(=O)O)cc3)nc2c(=O)[nH]1 (configuration not stated),survivor count,[5],3 of 10
same,survivor count,[6],0 of 10
CN1c2c(nc(N)[nH]c2=O)NCC1CCNc1ccc(C(=O)NC(CCC(=O)O)C(=O)O)cc1 (configuration not stated),T/C,"dose: 200.0 mg/kg/injection, schedule: Q01DX009 (ip), vehicle: sodium bicarbonate",125 % of control
same,T/C,"dose: 400.0 mg/kg/injection, schedule: Q01DX009 (ip), vehicle: sodium bicarbonate",128 % of control [9 of 10 alive]
same,T/C,"dose: 800.0 mg/kg/injection, schedule: Q01DX009 (ip), vehicle: sodium bicarbonate",131 % of control
Nc1nc(=S)c2ncn(C3OC(CO)CC3O)c2[nH]1 (configuration not stated),T/C,"dose: 20.0 mg/kg/injection, schedule: Q01DX009 (ip), vehicle: saline",126 % of control
O=NN(CCF)C(=O)NC1C(O)CCCC1O (configuration not stated),survivor count,"dose: 120.0 mg/kg/injection, schedule: Q01DX001 (ip), vehicle: saline",5 of 10 on day 6
Cc1cn(C2CC(F)C(CO)O2)c(=O)[nH]c1=O (configuration not stated),T/C,"dose: 500.0 mg/kg/injection, schedule: Q01DX009 (ip), vehicle: suspension in saline",128 % of control
same,T/C,"dose: 1000.0 mg/kg/injection, schedule: Q01DX009 (ip), vehicle: suspension in saline",127 % of control
Nc1nc(SCc2ccccc2Cl)c2ncn(C3OC(CO)C(O)C3O)c2n1 (configuration not stated),survivor count,[2],10 of 10
O=c1[nH]cnc2[nH]ncc12,survivor count,"dose: 200.0 mg/kg/injection, schedule: Q01DX009 (ip), vehicle: suspension in saline",8 of 10
same,survivor count,[7],3 of 10
COc1cccc2c1C(=O)c1c(O)c3c(c(O)c1C2=O)C[C@@](O)(/C(C)=N/NC(=O)c1ccc(Cl)cc1)C[C@@H]3OC1CC(N)C(O)C(C)O1 (some centres not stated),T/C,"dose: 1.0 mg/kg/injection, schedule: Q01DX009 (ip), vehicle: saline",144 % of control
same,survivor count,"dose: 16.0 mg/kg/injection, schedule: Q01DX009 (ip), vehicle: saline",10 of 10
Cc1cc(NCCCCCCCCNc2cc(C)nc3cc(N(C)C)ccc23)c2ccc(N(C)C)cc2n1,T/C,"dose: 6.25 mg/kg/injection, schedule: Q01DX009 (ip), vehicle: distilled water + Tween-80",127 % of control
same,T/C,"dose: 12.5 mg/kg/injection, schedule: Q01DX009 (ip), vehicle: distilled water + Tween-80",130 and 131 % of control
same,T/C,"dose: 25.0 mg/kg/injection, schedule: Q01DX009 (ip), vehicle: distilled water + Tween-80",139 % of control
same,survivor count,"dose: 50.0 mg/kg/injection, schedule: Q01DX009 (ip), vehicle: distilled water + Tween-80",6 of 10 and 9 of 9
same,survivor count,"dose: 100.0 mg/kg/injection, schedule: Q01DX009 (ip), vehicle: distilled water + Tween-80",0 of 10
COc1ccc(C(=O)CC2CCCC(CC(=O)c3ccc(OC)cc3)N2C)cc1 (configuration not stated),survivor count,[8],5 of 10
same,survivor count,[4],0 of 10
CC(SC(C)C(=O)N/N=C/c1ccc(C#N)cc1)C(=O)N/N=C\c1ccc(C#N)cc1 (configuration not stated),survivor count,[9],10 of 10
same,survivor count,[6],10 of 10
CC1C(=O)c2cc3c(cc2CCN(C)Cc2c1ccc1c2OCO1)OCO3 (configuration not stated),survivor count,"dose: 40.0 mg/kg/injection, schedule: Q01DX009 (ip), vehicle: saline with Tween-80",1 of 10
Cc1ccc(S(=O)(=O)NC(=O)OC23COCN2COC3)cc1,T/C,[2],128 % of control
same,T/C,[3],128 % of control
same,T/C,[8],125 % of control
CCC(NC(N)=O)C(CC)NC(N)=O (configuration not stated),survivor count,[3],3 of 10
same,survivor count,[8],0 of 10
CCC(C)n1ncc2c(N(C)C)ncnc21 (configuration not stated),survivor count,[1],9 of 10
same,survivor count,[2],7 of 10
same,survivor count,[3],0 of 10
"COC(=O)CCN1CC(=O)N(C)C(C)C(=O)OC(C)C(NC(=O)c2c3nc4c(C(=O)NC5C(=O)NC(C(C)C)C(=O)N6CCCC6C(=O)N(CCC(=O)OC)CC(=O)N(C)C(C)C(=O)OC5C)ccc(C)c4oc-3c(C)c(=O)c2N)C(=O)NC(C(C)C)C(=O)N2CCCC2C1=O (configuration not stated) (I: TVP[X1][NMeA] / II: TVP[X1][NMeA]; ester I:1-I:C, II:1-II:C; linker I:N-II:N via Actinocin(1to9); configuration not given here)",T/C,"dose: 16.0 mg/kg/injection, schedule: Q04DX003 (ip), vehicle: saline + alcohol",129 % of control
same,T/C,"dose: 32.0 mg/kg/injection, schedule: Q04DX003 (ip), vehicle: saline + alcohol",129 % of control
c1cnc2ncncc2n1,survivor count,[6],2 of 10
C[C@@H]1C[C@@H]([C@H](O)CC2CC(=O)NC(=O)C2)C(=O)[C@@H](C)C1,survivor count,[9],6 of 9
same,survivor count,[5],1 of 9
O=C(N/N=C/c1c(O)ccc2ccccc12)C(=O)N/N=C/c1c(O)ccc2ccccc12,T/C,[2],"125 [9 of 10 alive], 128, 138 % of control"
same,T/C,[3],131 % of control
same,survivor count,[3],10 of 10
same,survivor count,[8],1 of 10 and 8 of 10
CNC(=O)OCc1c(COC(=O)NC)c(C)n(-c2ccc(OC)cc2)c1C,T/C,"dose: 6.25 mg/kg/injection, schedule: Q01DX009 (ip), vehicle: Klucel (hydroxypropylcellulose) (HPC)",133 % of control
same,T/C,"dose: 12.5 mg/kg/injection, schedule: Q01DX009 (ip), vehicle: Klucel (hydroxypropylcellulose) (HPC)",136 % of control
same,T/C,"dose: 25.0 mg/kg/injection, schedule: Q01DX009 (ip), vehicle: Klucel (hydroxypropylcellulose) (HPC)",140 % of control
same,survivor count,[10],10 of 10
O=C1C2CC(Cl)C(SSC3CC4C(=O)N(SC(Cl)(Cl)C(Cl)Cl)C(=O)C4CC3Cl)CC2C(=O)N1SC(Cl)(Cl)C(Cl)Cl (configuration not stated),survivor count,"dose: 12.5 mg/kg/injection, schedule: Q01DX009 (ip), vehicle: saline with Tween-80",10 of 10
same,survivor count,[1],10 of 10
same,survivor count,[2],10 of 10
same,survivor count,[3],8 of 10
same,survivor count,[8],0 of 10 and 9 of 10
same,survivor count,[4],6 of 10
OC1CCCC2CCC[N-]C12.OC1CCCC2CCC[N-]C12.[Mn+2] (configuration not stated),survivor count,[10],10 of 10
same,survivor count,"dose: 200.0 mg/kg/injection, schedule: Q01DX009 (ip), vehicle: Klucel (hydroxypropylcellulose) (HPC)",1 of 10
CCOC(=O)C1=C(C#N)C2(CCC(OCc3ccccc3)CC2)C(=O)O1 (configuration not stated),survivor count,[5],9 of 10
same,survivor count,[6],4 of 10
same,survivor count,[7],9 of 10
O=c1nc(-c2ccco2)sc(=O)[nH]1,survivor count,"dose: 400.0 mg/kg/injection, schedule: Q01DX009 (ip), vehicle: Klucel (hydroxypropylcellulose) (HPC)",0 of 10
COC(C(=O)C(O)C(C)O)C1Cc2cc3cc(OC4CC(OC(C)=O)C(OC5CC(O)C(OC)C(C)O5)C(C)O4)cc(O)c3c(O)c2C(=O)C1OC1CC(OC2CC(OC3CC(C)(O)C(OC(=O)C(C)C)C(C)O3)C(O)C(C)O2)C(O)C(C)O1 (configuration not stated),T/C,"dose: 0.12 mg/kg/injection, schedule: Q01DX009 (ip), vehicle: saline with Tween-80",125 % of control
same,T/C,"dose: 0.25 mg/kg/injection, schedule: Q01DX009 (ip), vehicle: saline with Tween-80",131 % of control
CC1=CCC[C@@H]2C1(C)CCC(C)[C@@]2(C)CC1=CC(=O)C=CC1=O (some centres not stated),survivor count,"dose: 2.5 mg/kg/injection, schedule: Q01DX009 (ip), vehicle: Klucel (hydroxypropylcellulose) (HPC)",10 of 10
same,survivor count,"dose: 5.0 mg/kg/injection, schedule: Q01DX009 (ip), vehicle: Klucel (hydroxypropylcellulose) (HPC)",10 of 10
same,survivor count,"dose: 10.0 mg/kg/injection, schedule: Q01DX009 (ip), vehicle: Klucel (hydroxypropylcellulose) (HPC)",10 of 10
Cc1ccc(C2NC(=S)N3C(c4ccc(C)cc4)NC(=S)N23)cc1 (configuration not stated),T/C,"dose: 800.0 mg/kg/injection, schedule: Q01DX009 (ip), vehicle: Klucel (hydroxypropylcellulose) (HPC)",129 % of control
